Reference: patent US20140107219A1, “LOCAL ANAESTHETIC” (VITA (EUROPE) LIMITED, priority 2011, published 2014)

How the values were obtained:
[1] = in vivo; cited from earlier work
[2] = tested on: isolated sciatic nerve of the rat; assay: Evoked compound action potential (CAP) of the isolated rat sciatic nerve in a three-chamber bath (ex vivo): inhibition and recovery after washout; details: within the limits of 24 h

CCN(CC)CC(=O)Nc1c(C)cccc1C [lidocaine, 2-(diethylamino)-N-(2,6-dimethylphenyl)-acetamide, reference compound]
acute LD50 [1]: 313 mg/kg
neurotoxic effect on nerve fibres [2]: no neurotoxic effect
